Holding throughout (assay): two-hybrid; Bacterio-Match II bacterial two-hybrid in an E. coli reporter strain (derivative of XL1-Blue MRF'); hybrids with lambda cI-NTD (pBT) and RNAP alpha-NTD (pTRG), vector swaps; HIS3 reporter, selective plates with 5 mM 3-AT, 50 uM IPTG, 24 h at 37°C then 48 h at 28°C; CFU ratio selective/nonselective normalised to the RpoS/RssB interaction
For experiment [1], the target named is T1, isolated degenerate GGDEF domain of PdeR (E. coli K-12) (UniProt P77334).
T1 sequence: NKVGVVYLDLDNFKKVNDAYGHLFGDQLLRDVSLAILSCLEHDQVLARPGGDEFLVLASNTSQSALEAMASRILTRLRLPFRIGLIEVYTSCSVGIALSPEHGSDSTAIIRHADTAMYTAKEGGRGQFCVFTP

Protein sequences, listed by entry. Tags and fused reporters are not part of them.
UniProt P13445: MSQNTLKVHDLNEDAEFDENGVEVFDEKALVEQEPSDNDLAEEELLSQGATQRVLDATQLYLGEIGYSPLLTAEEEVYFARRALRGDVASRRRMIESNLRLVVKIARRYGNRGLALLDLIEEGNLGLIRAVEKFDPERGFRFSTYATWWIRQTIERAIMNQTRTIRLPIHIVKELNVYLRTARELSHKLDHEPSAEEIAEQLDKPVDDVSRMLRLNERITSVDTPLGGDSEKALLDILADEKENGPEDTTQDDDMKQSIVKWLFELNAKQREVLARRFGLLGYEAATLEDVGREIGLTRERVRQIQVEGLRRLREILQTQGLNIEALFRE

Experiment [2] concerns the target isolated degenerate GGDEF domain of PdeK (E. coli K-12) (UniProt P37649).
Experiment [3] deals with isolated GGDEF domain of DgcM (E. coli K-12) (UniProt P77302).
Another experiment deals with T2, PdeR (E. coli K-12) (UniProt P77334).
T2 sequence: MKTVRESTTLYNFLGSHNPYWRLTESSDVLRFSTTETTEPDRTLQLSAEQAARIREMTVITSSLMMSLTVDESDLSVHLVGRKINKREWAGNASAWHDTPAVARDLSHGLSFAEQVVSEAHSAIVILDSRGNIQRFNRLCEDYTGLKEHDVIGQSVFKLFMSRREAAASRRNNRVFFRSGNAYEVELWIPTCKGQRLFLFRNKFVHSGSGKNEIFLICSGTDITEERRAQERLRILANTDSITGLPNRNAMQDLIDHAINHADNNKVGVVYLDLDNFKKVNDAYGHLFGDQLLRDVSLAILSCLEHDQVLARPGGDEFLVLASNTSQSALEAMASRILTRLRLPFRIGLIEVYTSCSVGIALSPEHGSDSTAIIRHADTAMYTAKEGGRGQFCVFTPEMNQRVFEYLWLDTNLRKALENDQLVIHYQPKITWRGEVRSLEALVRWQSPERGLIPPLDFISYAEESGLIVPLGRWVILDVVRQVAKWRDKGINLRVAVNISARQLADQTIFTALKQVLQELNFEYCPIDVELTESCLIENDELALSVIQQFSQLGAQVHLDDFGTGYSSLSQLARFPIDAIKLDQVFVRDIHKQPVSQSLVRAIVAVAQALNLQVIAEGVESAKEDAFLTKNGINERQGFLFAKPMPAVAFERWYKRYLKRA

The target in experiment [4] is stationary-phase sigma factor RpoS (E. coli) (UniProt P13445).
Experiment [5] has as its target isolated GGDEF domain of DgcO (E. coli K-12) (UniProt P0AA89).
The target in experiment [6] is T3, isolated GGDEF domain of DgcT (E. coli K-12) (UniProt P75908).
T3 sequence: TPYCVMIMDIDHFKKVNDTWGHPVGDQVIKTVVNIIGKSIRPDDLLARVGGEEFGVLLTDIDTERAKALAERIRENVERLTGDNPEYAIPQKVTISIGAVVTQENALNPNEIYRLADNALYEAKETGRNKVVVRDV

These are yes or no findings as the source states them, for the method shown. Some binding calls cover weakened binding; strength is not graded here.

B1: isolated GGDEF domain of DgcN (domain or fragment, UniProt P46139 278-408)
chain: KTSALLFLDGDNFKYINDTWGHATGDRVLIEIAKRLAEFGGLRHKAYRLGGDEFAMVLYDVQSESEVQQICSALTQIFNLPFDLHNGHQTTMTLSIGYAMTIEHASAEKLQELADHNMYQAKHQRAEKLVR
For the molecule B1, the binding result in experiment [1] is listed as “binds”.

B2: isolated degenerate GGDEF domain of PdeK (domain or fragment, UniProt P37649 268-400)
chain: QTTALMIITCETLRDTAGVLKEAQREILLLTLVEKLKSVLSPRMILAQISGYDFAVIANGVQEPWHAITLGQQVLTIMSERLPIERIQLRPHCSIGVAMFYGDLTAEQLYSRAISAAFTARHKGKNQIQFFDP
Consider B2, for which the binding entry in experiment [2] is “binds”.

B3: isolated GGDEF domain of DgcM (domain or fragment, UniProt P77302 283-410)
chain: QDYSLLLIDTDRFKHINDLYGHSKGDEVLCALARTLESCARKGDLVFRWGGEEFVLLLPRTPLDTALSLAETIRVSVAKVSISGLPRFTVSIGVAHHEGNESIDELFKRVDDALYRAKNDGRNRVLAA
B3: in experiment [3], the binding entry is given as “binds”.

B4: DgcO (enzyme, UniProt P0AA89 1-460)
chain: MEMYFKRMKDEWTGLVEQADPPIRAKAAEIAVAHAHYLSIEFYRIVRIDPHAEEFLSNEQVERQLKSAMERWIINVLSAQVDDVERLIQIQHTVAEVHARIGIPVEIVEMGFRVLKKILYPVIFSSDYSAAEKLQVYHFSINSIDIAMEVMTRAFTFSDSSASKEDENYRIFSLLENAEEEKERQIASILSWEIDIIYKILLDSDLGSSLPLSQADFGLWFNHKGRHYFSGIAEVGHISRLIQDFDGIFNQTMRNTRNLNNRSLRVKFLLQIRNTVSQIITLLRELFEEVSRHEVGMDVLTKLLNRRFLPTIFKREIAHANRTGTPLSVLIIDVDKFKEINDTWGHNTGDEILRKVSQAFYDNVRSSDYVFRYGGDEFIIVLTEASENETLRTAERIRSRVEKTKLKAANGEDIALSLSIGAAMFNGHPDYERLIQIADEALYIAKRRGRNRVELWKASL
Consider B4, for which the binding result in the experiment with PdeR (E. coli K-12) is recorded as “binds”.

B5: isolated degenerate GGDEF domain of PdeR (domain or fragment, UniProt P77334 265-397)
chain: NKVGVVYLDLDNFKKVNDAYGHLFGDQLLRDVSLAILSCLEHDQVLARPGGDEFLVLASNTSQSALEAMASRILTRLRLPFRIGLIEVYTSCSVGIALSPEHGSDSTAIIRHADTAMYTAKEGGRGQFCVFTP
For B5, the binding result in experiment [1] is reported as “binds”.

B6: RssB, RpoS-binding proteolytic targeting factor (protein, UniProt P0AEV1 1-337)
chain: MTQPLVGKQILIVEDEQVFRSLLDSWFSSLGATTVLAADGVDALELLGGFTPDLMICDIAMPRMNGLKLLEHIRNRGDQTPVLVISATENMADIAKALRLGVEDVLLKPVKDLNRLREMVFACLYPSMFNSRVEEEERLFRDWDAMVDNPAAAAKLLQELQPPVQQVISHCRVNYRQLVAADKPGLVLDIAALSENDLAFYCLDVTRAGHNGVLAALLLRALFNGLLQEQLAHQNQRLPELGALLKQVNHLLRQANLPGQFPLLVGYYHRELKNLILVSAGLNATLNTGEHQVQISNGVPLGTLGNAYLNQLSQRCDAWQCQIWGTGGRLRLMLSAE
Consider B6, for which, in experiment [4], the binding entry is reported as “binds”.

B7: DgcM (enzyme, UniProt P77302 1-410)
chain: MITHNFNTLDLLTSPVWIVSPFEEQLIYANSAAKLLMQDLTFSQLRTGPYSVSSQKELPKYLSDLQNQHDIIEILTVQRKEEETALSCRLVLRKLTETEPVIIFEGIEAPATLGLKASRSANYQRKKQGFYARFFLTNSAPMLLIDPSRDGQIVDANLAALNFYGYNHETMCQKHTWEINMLGRRVMPIMHEISHLPGGHKPLNFVHKLADGSTRHVQTYAGPIEIYGDKLMLCIVHDITEQKRLEEQLEHAAHHDAMTGLLNRRQFYHITEPGQMQHLAIAQDYSLLLIDTDRFKHINDLYGHSKGDEVLCALARTLESCARKGDLVFRWGGEEFVLLLPRTPLDTALSLAETIRVSVAKVSISGLPRFTVSIGVAHHEGNESIDELFKRVDDALYRAKNDGRNRVLAA
For B7, the binding entry with PdeR (E. coli K-12) is recorded as “binds”.

B8: isolated GGDEF domain of DgcO (domain or fragment, UniProt P0AA89 325-458)
chain: TPLSVLIIDVDKFKEINDTWGHNTGDEILRKVSQAFYDNVRSSDYVFRYGGDEFIIVLTEASENETLRTAERIRSRVEKTKLKAANGEDIALSLSIGAAMFNGHPDYERLIQIADEALYIAKRRGRNRVELWKA
With B8, the binding result in experiment [5] and in experiment [1] was “binds” each time.

B9: isolated GGDEF domain of DgcE (domain or fragment, UniProt P38097 712-845)
chain: QRHALVFIDLDRFKAVNDSAGHAAGDALLRELASLMLSMLRSSDVLARLGGDEFGLLLPDCNVESARFIATRIISAVNDYHFIWEGRVHRVGASAGITLIDDNNHQAAEVMSQADIACYASKNGGRGRVTVYEP
For B9, in experiment [1], the binding result is reported as “binds”.

B10: isolated degenerate GGDEF domain of CsrD (domain or fragment, UniProt P13518 254-387)
chain: THGIVMMIRLPDFNMLSDTWGHSQVEEQFFTLTNLLSTFMMRYPGALLARYHRSDFAALLPHRTLKEAESIAGQLIKAVDTLPNNKMLDRDDMIHIGICAWRSGQDTEQVMEHAESATRNAGLQGGNSWAIYDD
B10: the binding entry in experiment [6] was “binds”.

The values above are taken from article PMC5635695, “More than Enzymes That Make or Break Cyclic Di-GMP—Local Signaling in the Interactome of GGDEF/EAL Domain Proteins of Escherichia coli” (mBio, 2017).
